Here are results for three molecules from article PMC10074677.

Experiment [1] concerns the target T1, HvANT1 fused with the N-terminal fragment of YFP (Hordeum vulgare L. var. nudum Hook. f. (Qingke)) (UniProt J7QK62).
T1 sequence: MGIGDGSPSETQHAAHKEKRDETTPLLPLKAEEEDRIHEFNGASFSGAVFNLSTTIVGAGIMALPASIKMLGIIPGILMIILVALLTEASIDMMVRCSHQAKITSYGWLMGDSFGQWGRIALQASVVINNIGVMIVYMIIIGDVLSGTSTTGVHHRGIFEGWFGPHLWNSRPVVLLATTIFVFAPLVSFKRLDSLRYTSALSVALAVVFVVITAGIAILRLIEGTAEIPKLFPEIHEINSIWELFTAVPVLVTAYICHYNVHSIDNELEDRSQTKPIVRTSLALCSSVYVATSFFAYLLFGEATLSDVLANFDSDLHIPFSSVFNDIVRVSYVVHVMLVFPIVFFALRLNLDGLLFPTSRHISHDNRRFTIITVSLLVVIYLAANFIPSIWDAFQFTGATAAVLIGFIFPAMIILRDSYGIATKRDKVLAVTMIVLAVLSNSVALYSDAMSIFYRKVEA
In words: split reporter; split YFP (vectors P2YN and P2YC) in tobacco leaf cells, agrobacterium-mediated; dark at 25 °C for 48 h; laser confocal microscope.

Experiment [2] has as its target T2, HvANT1-BD (Hordeum vulgare L. var. nudum Hook. f. (Qingke)) (UniProt J7QK62).
T2 sequence: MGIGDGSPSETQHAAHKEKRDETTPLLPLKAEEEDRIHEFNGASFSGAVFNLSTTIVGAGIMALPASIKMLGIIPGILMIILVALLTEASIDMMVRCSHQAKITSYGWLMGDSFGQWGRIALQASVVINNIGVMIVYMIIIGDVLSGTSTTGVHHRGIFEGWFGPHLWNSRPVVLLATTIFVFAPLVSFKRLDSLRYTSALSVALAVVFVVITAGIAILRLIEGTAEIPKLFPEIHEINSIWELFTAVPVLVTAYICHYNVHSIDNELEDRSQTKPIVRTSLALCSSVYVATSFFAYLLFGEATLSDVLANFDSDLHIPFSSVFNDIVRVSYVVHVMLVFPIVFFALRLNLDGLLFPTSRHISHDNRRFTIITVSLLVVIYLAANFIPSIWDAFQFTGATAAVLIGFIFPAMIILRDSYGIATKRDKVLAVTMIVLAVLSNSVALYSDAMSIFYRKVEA
Description: two-hybrid; yeast strain AH109; pGBD-T7 (BD) and pGAD-T7 (AD) fusions; growth on SD-THA (SD/-Trp-His-Ade) medium supplemented with 40 mM 3-AT.

For experiment [3], the target named is HvANT2 fused with the N-terminal fragment of YFP (Hordeum vulgare L. var. nudum Hook. f. (Qingke)). Description: split reporter; split YFP (vectors P2YN and P2YC) in tobacco leaf cells, agrobacterium-mediated; dark at 25 °C for 48 h; laser confocal microscope.

Results are given in words; binding and its absence hold for the method and conditions named. Binding calls can cover weak binding; strength is not graded here. Tags and fused reporters may be left off the sequences shown. For part of these data: Binding seen in cells or lysates may run through a third protein.

For the molecule “HvWD40-140 fused with the C-terminal fragment of YFP”, the binding entry in experiment [1] is reported as “binds”.

For HvWD40-140-AD, the binding result in experiment [2] is given as “binds”.

B1: HvANT1 fused with the C-terminal fragment of YFP (protein, UniProt J7QK62 1-459)
chain: MGIGDGSPSETQHAAHKEKRDETTPLLPLKAEEEDRIHEFNGASFSGAVFNLSTTIVGAGIMALPASIKMLGIIPGILMIILVALLTEASIDMMVRCSHQAKITSYGWLMGDSFGQWGRIALQASVVINNIGVMIVYMIIIGDVLSGTSTTGVHHRGIFEGWFGPHLWNSRPVVLLATTIFVFAPLVSFKRLDSLRYTSALSVALAVVFVVITAGIAILRLIEGTAEIPKLFPEIHEINSIWELFTAVPVLVTAYICHYNVHSIDNELEDRSQTKPIVRTSLALCSSVYVATSFFAYLLFGEATLSDVLANFDSDLHIPFSSVFNDIVRVSYVVHVMLVFPIVFFALRLNLDGLLFPTSRHISHDNRRFTIITVSLLVVIYLAANFIPSIWDAFQFTGATAAVLIGFIFPAMIILRDSYGIATKRDKVLAVTMIVLAVLSNSVALYSDAMSIFYRKVEA
Consider B1, for which the binding entry in experiment [3] is “binds”.
